# The other results are listed elsewhere or left out. Most entries show no effect beyond the scatter of the controls.
# Protein sequences, listed by entry. Tags and fused reporters are not part of them. Lines headed by an entry give the natural chain unless they say otherwise; changes in a name come on top.
# UniProt P53657: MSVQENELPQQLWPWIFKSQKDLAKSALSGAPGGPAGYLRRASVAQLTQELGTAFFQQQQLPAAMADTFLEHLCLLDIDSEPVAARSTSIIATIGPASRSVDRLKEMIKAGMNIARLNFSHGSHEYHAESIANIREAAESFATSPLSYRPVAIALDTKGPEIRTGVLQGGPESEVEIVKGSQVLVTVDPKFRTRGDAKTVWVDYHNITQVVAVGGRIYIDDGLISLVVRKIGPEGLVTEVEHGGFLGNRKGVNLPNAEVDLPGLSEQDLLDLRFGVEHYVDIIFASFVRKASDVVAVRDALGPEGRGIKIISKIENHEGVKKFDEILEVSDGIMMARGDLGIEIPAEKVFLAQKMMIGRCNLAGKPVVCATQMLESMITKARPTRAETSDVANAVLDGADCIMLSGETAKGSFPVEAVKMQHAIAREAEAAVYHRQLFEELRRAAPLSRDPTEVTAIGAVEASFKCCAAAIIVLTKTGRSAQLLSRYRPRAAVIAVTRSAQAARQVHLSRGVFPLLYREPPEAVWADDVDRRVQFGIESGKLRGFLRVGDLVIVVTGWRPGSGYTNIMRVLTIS
# UniProt P46735: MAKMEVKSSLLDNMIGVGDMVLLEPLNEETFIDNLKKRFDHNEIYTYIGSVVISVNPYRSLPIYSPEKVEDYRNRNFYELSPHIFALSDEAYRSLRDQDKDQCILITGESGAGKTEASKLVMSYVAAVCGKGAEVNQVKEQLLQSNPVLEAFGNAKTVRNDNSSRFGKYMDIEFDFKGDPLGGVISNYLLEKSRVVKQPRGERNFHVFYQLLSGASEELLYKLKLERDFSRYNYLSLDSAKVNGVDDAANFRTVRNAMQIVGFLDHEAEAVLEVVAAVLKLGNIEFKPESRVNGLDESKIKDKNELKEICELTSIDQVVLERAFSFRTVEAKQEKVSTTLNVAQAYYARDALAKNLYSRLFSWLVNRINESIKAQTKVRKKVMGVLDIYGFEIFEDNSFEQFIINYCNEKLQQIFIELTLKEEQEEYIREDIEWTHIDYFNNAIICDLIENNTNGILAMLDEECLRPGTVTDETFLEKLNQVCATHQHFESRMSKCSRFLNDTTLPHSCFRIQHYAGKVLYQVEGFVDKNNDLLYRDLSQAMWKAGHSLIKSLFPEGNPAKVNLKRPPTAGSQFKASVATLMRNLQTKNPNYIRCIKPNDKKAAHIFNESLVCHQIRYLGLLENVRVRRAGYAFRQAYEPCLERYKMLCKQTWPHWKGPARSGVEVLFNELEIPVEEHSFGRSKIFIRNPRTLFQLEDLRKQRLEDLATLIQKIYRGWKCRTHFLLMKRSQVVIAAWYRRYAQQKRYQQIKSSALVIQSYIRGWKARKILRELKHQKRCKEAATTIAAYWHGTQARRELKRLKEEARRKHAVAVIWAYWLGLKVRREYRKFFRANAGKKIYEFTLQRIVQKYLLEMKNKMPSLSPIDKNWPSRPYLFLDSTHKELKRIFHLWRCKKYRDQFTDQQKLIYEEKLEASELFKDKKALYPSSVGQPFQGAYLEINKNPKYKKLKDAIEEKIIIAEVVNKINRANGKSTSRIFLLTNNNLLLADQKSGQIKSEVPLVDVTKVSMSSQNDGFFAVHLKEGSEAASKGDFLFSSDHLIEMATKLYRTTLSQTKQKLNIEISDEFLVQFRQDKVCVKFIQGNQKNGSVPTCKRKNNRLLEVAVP
# UniProt P48758: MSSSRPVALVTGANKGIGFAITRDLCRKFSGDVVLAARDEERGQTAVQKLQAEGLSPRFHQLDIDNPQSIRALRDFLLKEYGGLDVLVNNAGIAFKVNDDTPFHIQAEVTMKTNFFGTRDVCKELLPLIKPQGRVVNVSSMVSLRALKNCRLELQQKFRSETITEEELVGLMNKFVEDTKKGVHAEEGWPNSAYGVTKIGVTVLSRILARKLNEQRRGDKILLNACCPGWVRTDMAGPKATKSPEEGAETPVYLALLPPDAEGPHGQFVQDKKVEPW
# UniProt P53798: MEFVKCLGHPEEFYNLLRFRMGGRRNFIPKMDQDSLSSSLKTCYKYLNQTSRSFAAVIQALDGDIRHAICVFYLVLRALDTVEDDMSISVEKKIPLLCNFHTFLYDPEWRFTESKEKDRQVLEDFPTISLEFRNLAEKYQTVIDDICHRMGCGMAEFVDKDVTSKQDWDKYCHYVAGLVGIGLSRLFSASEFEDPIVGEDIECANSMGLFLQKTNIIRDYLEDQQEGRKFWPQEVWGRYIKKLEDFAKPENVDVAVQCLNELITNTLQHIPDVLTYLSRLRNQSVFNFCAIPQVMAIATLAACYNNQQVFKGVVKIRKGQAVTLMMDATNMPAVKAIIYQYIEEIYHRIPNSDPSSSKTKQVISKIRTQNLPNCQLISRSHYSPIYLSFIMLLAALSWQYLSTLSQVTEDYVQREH
# UniProt P51859: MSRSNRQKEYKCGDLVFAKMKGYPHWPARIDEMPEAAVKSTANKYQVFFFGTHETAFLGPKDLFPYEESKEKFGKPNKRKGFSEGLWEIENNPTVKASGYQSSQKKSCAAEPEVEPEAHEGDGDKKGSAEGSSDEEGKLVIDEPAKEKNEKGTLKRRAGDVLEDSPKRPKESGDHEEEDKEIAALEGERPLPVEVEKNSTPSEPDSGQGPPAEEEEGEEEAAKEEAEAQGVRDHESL
# UniProt P49443: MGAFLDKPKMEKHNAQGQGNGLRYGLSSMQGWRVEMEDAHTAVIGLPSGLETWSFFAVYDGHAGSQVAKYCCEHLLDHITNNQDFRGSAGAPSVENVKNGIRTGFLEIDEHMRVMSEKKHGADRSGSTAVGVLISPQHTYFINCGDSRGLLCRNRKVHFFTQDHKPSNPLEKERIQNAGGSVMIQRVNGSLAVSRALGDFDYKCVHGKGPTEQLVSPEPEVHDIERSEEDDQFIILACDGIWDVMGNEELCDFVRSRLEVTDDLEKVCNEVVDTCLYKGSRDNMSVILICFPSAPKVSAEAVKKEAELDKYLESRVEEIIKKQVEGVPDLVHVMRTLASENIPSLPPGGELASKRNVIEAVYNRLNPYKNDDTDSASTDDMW
# UniProt P47876: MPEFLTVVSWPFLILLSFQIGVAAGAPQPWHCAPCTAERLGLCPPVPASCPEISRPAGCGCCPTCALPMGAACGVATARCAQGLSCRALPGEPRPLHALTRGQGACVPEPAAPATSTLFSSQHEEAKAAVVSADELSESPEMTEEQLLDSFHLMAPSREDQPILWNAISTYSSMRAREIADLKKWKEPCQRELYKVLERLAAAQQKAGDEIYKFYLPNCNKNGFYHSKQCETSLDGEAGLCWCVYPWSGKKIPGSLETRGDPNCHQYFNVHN
# Compound: CN[C@@H]1C[C@H]2O[C@@](C)([C@@H]1OC)n1c3ccccc3c3c4c(c5c6ccccc6n2c5c31)C(=O)NC4 [staurosporine]
# Experiment: log2 fold change of tryptic peptide abundance, ligand vs vehicle (limited proteolysis) (log2 ratio); higher = more trypsin-susceptible (destabilized)
# Details: ligand concentration: 20 uM; sample: mouse liver crude lysate; replicate design: treated separately
row,Target,log2 fold change
1,"UniProt P53657 (peptide sequence: EPPEAVWADDVDRR, peptide start residue: 519)",-0.271
2,"UniProt P46735 (peptide sequence: DQDKDQCILITGESGAGKTEASK, peptide start residue: 97)",-0.754
3,"UniProt P51410 (peptide sequence: VDKWWGNR, peptide start residue: 57)",0.298
4,"UniProt P48758 (peptide sequence: PVALVTGANK, peptide start residue: 6)",0.197
5,"UniProt P53798 (peptide sequence: TNIIRDYLEDQQEGR, peptide start residue: 214)",-0.215
6,"UniProt P51859 (peptide sequence: GYPHWPAR, peptide start residue: 17)",0.169
7,"UniProt P49443 (peptide sequence: HNAQGQGNGLR, peptide start residue: 13)",0.545
8,"UniProt P47876 (peptide sequence: WKEPCQR, peptide start residue: 185)",-0.147

# From the supplement of paper PMC12819154, “High-throughput peptide-centric local stability assay extends protein–ligand identification to membrane proteins, tissues and bacteria” (Nature Structural & Molecular Biology, 2025)
